Series [1] concerns GABP (HEL nuclear extract). Kind of series: competition with a labelled probe. The note with it: band II not inhibited by mutant competitor; 2 mM HEPES-NaOH pH 7.9, 5 mM KCl, 2% glycerol, 0.01 mM EDTA, 0.25 mM DTT, 0.1 mg/ml BSA, 5 ng/ul poly dI-dC, 50 fmol probe, 40 min at 4 C; 4% native gel, 0.5x TBE; protein in an extract; label: 32P as probe, unlabelled as competitor.
For series [2], the target named is T1, ELF-1 (HEL nuclear extract) (UniProt P32519).
T1 sequence (looked up, limits assumed): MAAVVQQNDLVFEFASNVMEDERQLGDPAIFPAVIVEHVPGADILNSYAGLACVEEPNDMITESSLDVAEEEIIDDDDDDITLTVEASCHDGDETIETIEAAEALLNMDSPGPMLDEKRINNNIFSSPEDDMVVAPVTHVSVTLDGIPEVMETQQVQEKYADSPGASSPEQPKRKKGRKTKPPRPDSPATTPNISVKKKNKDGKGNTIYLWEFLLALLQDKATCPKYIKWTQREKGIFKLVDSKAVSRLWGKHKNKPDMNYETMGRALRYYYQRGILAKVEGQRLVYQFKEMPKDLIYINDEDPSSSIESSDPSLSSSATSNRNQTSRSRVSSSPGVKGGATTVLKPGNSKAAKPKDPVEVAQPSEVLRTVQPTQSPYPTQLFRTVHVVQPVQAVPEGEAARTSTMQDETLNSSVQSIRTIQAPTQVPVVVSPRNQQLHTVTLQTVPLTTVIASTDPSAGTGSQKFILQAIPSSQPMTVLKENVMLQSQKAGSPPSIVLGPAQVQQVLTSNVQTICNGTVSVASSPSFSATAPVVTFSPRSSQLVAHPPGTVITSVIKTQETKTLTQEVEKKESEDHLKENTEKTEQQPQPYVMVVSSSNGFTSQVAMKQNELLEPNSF
Kind of series: competition with a labelled probe. The note with it: band I not inhibited by mutant competitor; 2 mM HEPES-NaOH pH 7.9, 5 mM KCl, 2% glycerol, 0.01 mM EDTA, 0.25 mM DTT, 0.1 mg/ml BSA, 5 ng/ul poly dI-dC, 50 fmol probe, 40 min at 4 C; 4% native gel, 0.5x TBE; protein in an extract; label: 32P as probe, unlabelled as competitor.

Series [3] addresses T2, FLI-1 (HEL nuclear extract) (UniProt Q01543).
T2 sequence (looked up, limits assumed): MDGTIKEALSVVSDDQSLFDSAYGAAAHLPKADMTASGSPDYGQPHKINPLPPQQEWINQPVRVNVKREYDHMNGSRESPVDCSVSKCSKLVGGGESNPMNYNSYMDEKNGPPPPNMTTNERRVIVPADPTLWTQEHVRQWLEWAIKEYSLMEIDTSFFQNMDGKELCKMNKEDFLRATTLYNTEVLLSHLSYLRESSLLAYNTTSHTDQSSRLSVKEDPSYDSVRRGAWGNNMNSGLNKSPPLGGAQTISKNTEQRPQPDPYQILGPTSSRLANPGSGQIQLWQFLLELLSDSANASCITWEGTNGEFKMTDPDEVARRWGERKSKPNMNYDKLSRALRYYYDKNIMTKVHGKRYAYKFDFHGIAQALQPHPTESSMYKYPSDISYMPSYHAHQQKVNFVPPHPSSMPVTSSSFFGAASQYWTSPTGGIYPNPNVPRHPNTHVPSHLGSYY
Put plainly: competition with a labelled probe. To be noted: band IIIa not inhibited by mutant competitor; 2 mM HEPES-NaOH pH 7.9, 5 mM KCl, 2% glycerol, 0.01 mM EDTA, 0.25 mM DTT, 0.1 mg/ml BSA, 5 ng/ul poly dI-dC, 50 fmol probe, 40 min at 4 C; 4% native gel, 0.5x TBE; protein in an extract; label: 32P as probe, unlabelled as competitor.

The target in another series is T3, GABPalpha (UniProt Q06546).
T3 sequence (looked up, limits assumed): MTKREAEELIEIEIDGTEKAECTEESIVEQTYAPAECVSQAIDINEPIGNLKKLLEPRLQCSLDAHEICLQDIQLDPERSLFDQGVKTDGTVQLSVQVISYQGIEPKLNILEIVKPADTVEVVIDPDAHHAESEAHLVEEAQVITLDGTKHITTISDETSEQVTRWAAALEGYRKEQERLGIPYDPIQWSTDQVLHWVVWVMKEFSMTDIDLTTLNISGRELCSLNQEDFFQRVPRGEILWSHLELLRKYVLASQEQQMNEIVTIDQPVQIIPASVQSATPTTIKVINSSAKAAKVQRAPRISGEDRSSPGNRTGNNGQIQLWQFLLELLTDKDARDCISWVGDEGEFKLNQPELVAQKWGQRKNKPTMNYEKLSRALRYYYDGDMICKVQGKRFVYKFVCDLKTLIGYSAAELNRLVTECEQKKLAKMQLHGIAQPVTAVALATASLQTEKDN
Put plainly: EMSA. The note with it: GABPalpha alone (band alpha); 2 mM HEPES-NaOH pH 7.9, 5 mM KCl, 2% glycerol, 0.01 mM EDTA, 0.25 mM DTT, 0.1 mg/ml BSA, 5 ng/ul poly dI-dC, 50 fmol probe, 40 min at 4 C; 4% native gel, 0.5x TBE; protein translated in vitro; label: 32P. (In general: Mobility shift assays separate free from complexed probe on a gel.)

Series [4] concerns GABP (HEL nuclear extract). Kind of series: EMSA supershift. To be noted: band II inhibited by antibody, cold wild type competes; 2 mM HEPES-NaOH pH 7.9, 5 mM KCl, 2% glycerol, 0.01 mM EDTA, 0.25 mM DTT, 0.1 mg/ml BSA, 5 ng/ul poly dI-dC, 50 fmol probe, 40 min at 4 C; 4% native gel, 0.5x TBE; protein in an extract; label: 32P.
Series [5] concerns the target T1, ELF-1 (HEL nuclear extract). Kind of series: EMSA supershift. The note with it: band I inhibited by antibody, cold wild type competes; 2 mM HEPES-NaOH pH 7.9, 5 mM KCl, 2% glycerol, 0.01 mM EDTA, 0.25 mM DTT, 0.1 mg/ml BSA, 5 ng/ul poly dI-dC, 50 fmol probe, 40 min at 4 C; 4% native gel, 0.5x TBE; protein in an extract; label: 32P.
Series [6] concerns the target T2, FLI-1 (HEL nuclear extract). Put plainly: EMSA supershift. To be noted: band IIIa, cold wild type competes; 2 mM HEPES-NaOH pH 7.9, 5 mM KCl, 2% glycerol, 0.01 mM EDTA, 0.25 mM DTT, 0.1 mg/ml BSA, 5 ng/ul poly dI-dC, 50 fmol probe, 40 min at 4 C; 4% native gel, 0.5x TBE; protein in an extract; label: 32P.

Construct, isoform or probe ends are uncertain for at least one entry. For some of these results: Results from cells or extracts need not show a direct contact. For some of these results: A negative result means that nothing was seen under these conditions. For some of these results: Protein sequences can lack the tags named with them. For some of these results: At least one verdict rests on a figure or table, not on a statement of the authors.

Here are results for two sequences from article PMC3171469, “Multiple ETS Family Proteins Regulate PF4 Gene Expression by Binding to the Same ETS Binding Site”.

For the sequence “CCCGGGTCGGTGGACTGGGCTG (double strand) [-51 ETSmut]”, the binding result in series [1], in series [2] and in series [3] was “no binding” each time.
With “CCCGGGTTTCCGGACTGGGCTG (double strand) [-51 ETS]”, the binding result (in the series with GABPalpha; in series [4]; in series [5]; in series [6]) was “binds” each time.
